This note sets out measurements from PubChem BioAssay AID192 (DTP/NCI, 2004).

In this test the test system is BDF1 mice, B16 melanoma ip, median survival T/C. Put plainly: NCI In Vivo Anticancer Drug Screen. Data for tumor model B16 Melanoma (intraperitoneal) in B6D2F1 (BDF1) mice. Conditions: T/C endpoint: median survival time, higher T/C = longer survival. Put shortly: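 Vehicle-treated animals serve as the reference (C); treated animals (T) are scored for survival or tumor size after tumor transplantation.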

The mark [1] stands for this setting: dose: 400.0 mg/kg/injection, schedule: Q01DX009 (ip), vehicle: Klucel (hydroxypropylcellulose) (HPC).
Setting [2] is: dose: 100.0 mg/kg/injection, schedule: Q01DX009 (ip), vehicle: saline with Tween-80.
The mark [3] stands for this setting: dose: 200.0 mg/kg/injection, schedule: Q01DX009 (ip), vehicle: saline with Tween-80.
[4] abbreviates: dose: 12.5 mg/kg/injection, schedule: Q01DX009 (ip), vehicle: Klucel (hydroxypropylcellulose) (HPC).
Setting [5] is: dose: 100.0 mg/kg/injection, schedule: Q01DX009 (ip), vehicle: Klucel (hydroxypropylcellulose) (HPC).
[6] abbreviates: dose: 200.0 mg/kg/injection, schedule: Q01DX009 (ip), vehicle: Klucel (hydroxypropylcellulose) (HPC).
Setting [7] is: dose: 50.0 mg/kg/injection, schedule: Q01DX009 (ip), vehicle: saline with Tween-80.

SMILES strings stand for the structures. The list does not hold the whole screen: it gathers tests that were run many times, whatever their T/C, doses with no T/C, and many T/C values between a quarter and a half above the control. Further doses and runs are listed elsewhere. T/C is the treated group as % of the vehicle group. Some entries give survivors of the animals treated and no T/C: the source files T/C as zero there, which appears to mark a toxic dose or a test without result, not a measured value. Some survivor counts are full or nearly so, which does not show that the dose was tolerated: survival well below the control is almost never listed, so the zero probably covers shortened survival too. Survivors were counted at the toxicity check, usually on the fifth day, unless a day is given; later deaths do not show. Schedule codes are those of the source, read here as Q, the interval in days (D) or hours (H), X, the number of doses. Additions like (4×) count equal records among those shown. Some entries hold several experiments; their values stand side by side, smallest first. For survival time, the PubChem record calls one and a half times the control and up active, and a quarter to a half above the control has no call in these data; cut-offs in other NCI protocols can differ.

On to `N/C(CCSc1ccccc1N=Cc1ccccc1O)=N/O`, for which the survivor count is 9 of 10 and 10 of 10 (dose: 3.13 mg/kg/injection, schedule: Q01DX009 (ip), vehicle: olive oil, sesame oil, peanut oil); 10 of 10 (2×) (dose: 6.25 mg/kg/injection, schedule: Q01DX009 (ip), vehicle: olive oil, sesame oil, peanut oil); 9 of 10 (2×) (dose: 12.5 mg/kg/injection, schedule: Q01DX009 (ip), vehicle: olive oil, sesame oil, peanut oil); 10 of 10 (2×) (dose: 25.0 mg/kg/injection, schedule: Q01DX009 (ip), vehicle: olive oil, sesame oil, peanut oil); 8 of 10 and 10 of 10 (dose: 50.0 mg/kg/injection, schedule: Q01DX009 (ip), vehicle: olive oil, sesame oil, peanut oil); 0 of 10 and 4 of 10 (dose: 100.0 mg/kg/injection, schedule: Q01DX009 (ip), vehicle: olive oil, sesame oil, peanut oil).

As for `Cc1cc(C)c(OCC(O)CO)c(C)c1` (centres undefined), under “dose: 400.0 mg/kg/injection, schedule: Q01DX009 (ip), vehicle: saline with Tween-80”, the survivor count is given as 6 of 10.

In the case of `CC(O)C(NC(=O)OC(C)(C)C)C(=O)O` (centres undefined), the T/C (dose: 100.0 mg/kg/injection, schedule: Q01DX009 (ip), vehicle: saline) is 140 % of control.

For the molecule `O=C(Nc1ccccc1C(F)(F)F)Nc1cccc2ccccc12`, the survivor count under setting [1] was 6 of 6.

Turning to `C=CCN(CC=C)P(=O)(N1CC1C)N1CC1C` (centres undefined), the survivor count (dose: 2.5 mg/kg/injection, schedule: Q01DX009 (ip), vehicle: saline) is listed as 10 of 10; the survivor count (dose: 5.0 mg/kg/injection, schedule: Q01DX009 (ip), vehicle: saline) is given as 10 of 10; the survivor count (dose: 10.0 mg/kg/injection, schedule: Q01DX009 (ip), vehicle: saline) is reported as 8 of 10; the survivor count (dose: 20.0 mg/kg/injection, schedule: Q01DX009 (ip), vehicle: saline) is listed as 7 of 10.

Turning to `O=C1c2ccccc2C(=O)c2c(NCCNCCO)ccc(O)c21`, the T/C (dose: 40.0 mg/kg/injection, schedule: Q01DX009 (ip), vehicle: suspension in saline) is 142 % of control.

With `C[C@]12C=CC(=O)C=C1CC[C@@H]1[C@@H]2[C@@H](O)C[C@@]2(C)[C@H]1CC[C@]2(O)C(=O)CO`, the survivor count was 10 of 10 (dose: 40.0 mg/kg/injection, schedule: Q02DX009 (ip), vehicle: Klucel (hydroxypropylcellulose) (HPC)); 10 of 10 (dose: 80.0 mg/kg/injection, schedule: Q02DX009 (ip), vehicle: Klucel (hydroxypropylcellulose) (HPC)); 10 of 10 (dose: 640.0 mg/kg/injection, schedule: Q02DX009 (ip), vehicle: Klucel (hydroxypropylcellulose) (HPC)).

As to `CCn1cnc2c(=S)nc[nH]c21`, the survivor count is reported as 5 of 6 under setting [2] and 6 of 6 under setting [3].

In the case of `O=C(O)CN(CCN(CC(=O)O)CC(=O)O)CCN(CC(=O)O)CC(=O)O`, the survivor count reads like this: under setting [4], 10 of 10; under setting [5], 6 of 10; under setting [1], 0 of 10.

On to `C#CCC1(OC(N)=O)CCCCC1`, for which the survivor count (dose: 200.0 mg/kg/injection, schedule: Q01DX009 (ip), vehicle: saline) is given as 9 of 10 and the survivor count (dose: 400.0 mg/kg/injection, schedule: Q04DX003 (ip), vehicle: Klucel (hydroxypropylcellulose) (HPC)) is 10 of 10.

`NC(CS/C(Cl)=C/Cl)C(=O)O` (centres undefined): the survivor count (dose: 40.0 mg/kg/injection, schedule: Q01DX009 (ip), vehicle: other) is on record as 5 of 10.

`O=c1[nH]cc(N(CCCl)CCCl)c(=O)[nH]1`: the T/C is 130 % of control (dose: 0.23 mg/kg/injection, schedule: Q01DX009 (ip), vehicle: saline with Tween-80); 135 % of control (dose: 0.38 mg/kg/injection, schedule: Q01DX009 (ip), vehicle: saline); 145 % of control (dose: 0.39 mg/kg/injection, schedule: Q01DX009 (ip), vehicle: saline with Tween-80); 127 % of control (dose: 0.75 mg/kg/injection, schedule: Q01DX009 (ip), vehicle: saline). In addition, the survivor count reads like this: (dose: 1.8 mg/kg/injection, schedule: Q01DX009 (ip), vehicle: saline with Tween-80) 10 of 10; (dose: 3.0 mg/kg/injection, schedule: Q01DX009 (ip), vehicle: saline with Tween-80) 10 of 10.

With `CS(=O)(=O)Nc1ccccc1N`, the survivor count under setting [5] is recorded as 10 of 10, the survivor count under setting [6] is recorded as 7 of 10 and the survivor count under setting [1] was 0 of 10.

In the case of `CCCCCCCCCCCCCCCCCCNC(=O)Nc1cccc(C)c1C`, the survivor count was 10 of 10 under setting [5], 10 of 10 under setting [6] and 9 of 9 under setting [1].

On to `CCC/C=C/C=C/C1CC(O)C(O)C(=O)C1C=O` (centres undefined), for which the survivor count (dose: 25.0 mg/kg/injection, schedule: Q01DX009 (ip), vehicle: saline with Tween-80) is recorded as 9 of 10; the survivor count under setting [7] was 0 of 10; the survivor count under setting [2] is 0 of 10.

Regarding `COc1c(I)c2c(c(OC)c1OC)-c1ccc(OC)c(=O)cc1C(NC(C)=O)CC2` (centres undefined), the T/C was 127 % of control (dose: 3.12 mg/kg/injection, schedule: Q01DX009 (ip), vehicle: Klucel (hydroxypropylcellulose) (HPC)) and 132 % of control (dose: 6.25 mg/kg/injection, schedule: Q01DX009 (ip), vehicle: Klucel (hydroxypropylcellulose) (HPC)). Moreover, the survivor count reads like this: under setting [4], 9 of 10; (dose: 25.0 mg/kg/injection, schedule: Q01DX009 (ip), vehicle: Klucel (hydroxypropylcellulose) (HPC)) 10 of 10.

As for `CNc1ccc(O)cc1`, the survivor count under setting [7] is listed as 6 of 6.

For the molecule `Cc1cc(C)c(NC(=O)Nc2ccccc2)c(C)c1`, the survivor count is reported as 10 of 10 under setting [5], 7 of 10 under setting [6] and 5 of 10 under setting [1].

Consider `FC(F)(F)c1nc2nc(Cl)c(Cl)nc2[nH]1`, for which the survivor count under setting [2] is 6 of 10.

On to `Nc1nc(Cl)c2[nH]cnc2n1`, for which the survivor count runs as follows: (dose: 0.38 mg/kg/injection, schedule: Q01DX009 (ip), vehicle: other) 8 of 10; (dose: 1.5 mg/kg/injection, schedule: Q01DX009 (ip), vehicle: other) 9 of 10; (dose: 1.6 mg/kg/injection, schedule: Q01DX009 (ip), vehicle: other) 6 of 10; (dose: 3.12 mg/kg/injection, schedule: Q01DX009 (ip), vehicle: other) 3 of 10; (dose: 6.25 mg/kg/injection, schedule: Q01DX009 (ip), vehicle: other) 9 of 10; (dose: 12.5 mg/kg/injection, schedule: Q01DX009 (ip), vehicle: other) 7 of 10. Also, the survivor count is, setting by setting: (dose: 100.0 mg/kg/injection, schedule: Q01DX009 (ip), vehicle: other) 8 of 10; (dose: 200.0 mg/kg/injection, schedule: Q01DX009 (ip), vehicle: other) 2 of 10; (dose: 400.0 mg/kg/injection, schedule: Q01DX009 (ip), vehicle: other) 0 of 10.

For the molecule `Nc1nc(=S)c2ncn(C3OC(CO)C(O)C3O)c2[nH]1` (centres undefined), the survivor count reads like this: (dose: 4.0 mg/kg/injection, schedule: Q01DX009 (ip), vehicle: saline sonified) 6 of 6; (dose: 8.0 mg/kg/injection, schedule: Q01DX009 (ip), vehicle: saline sonified) 6 of 6; (dose: 8.0 mg/kg/injection, schedule: Q01DX009 (ip), vehicle: saline with Tween-80) 6 of 6. The T/C (dose: 4.0 mg/kg/injection, schedule: Q01DX009 (ip), vehicle: saline with Tween-80) was 129 % of control.

Turning to `CCN(CC)CCNc1ccc(N=Nc2cnc3ccccc3c2)c2ccccc12`, the survivor count runs as follows: under setting [2], 9 of 10; under setting [3], 6 of 10.
